PubChem BioAssay AID743458, Peter MacCallum Cancer Centre – 2014
Screen: 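Identify genes whose loss lifts vorinostat resistance in colon cancer cells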 (follow-up of hits). Cells: human HCT116-VR colon cancer cells made resistant to vorinostat. Knock-down reagent: single siRNA or pool against human genes, 25 nM per single siRNA. Timing: about 72 h after transfection, including 24 h of drug. Treatment: vorinostat, 2.5 µM final, for 24 h. Measurement: 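Live-cell fluorescent viability and luminescent caspase 3/7 activity after vorinostat treatment, background subtracted, mean of duplicate plates, as fold change over mock-transfected wells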. Direction: viability relative to mock: higher = more living cells than mock; caspase activity relative to mock: higher = more apoptosis than mock. Active means: 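An siRNA counts as active if classed as reduced viability or as caspase activation, otherwise inactive; a hit class needed wells that remained healthy in the absence of drug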.
The whole screen tested about 1,800 reagents; shown is a part drawn at random. 732 of them (41%) were called active. 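Calls are per siRNA reagent; a gene was deemed confirmed only if most of its four siRNAs scored.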 Unmarked entries are inactive. The numbers tell different reagents against one gene apart.

| Gene | reagent no. | viability relative to mock | caspase activity relative to mock | viability hit class | caspase hit class |
| --- | --- | --- | --- | --- | --- |
| UBE2M | 1 | 1.04 | 1.16 | no change | no change |
| UBE2M | 2 | 1.02 | 1.31 | no change | no change |
| UBE2M | 3 | 0.8 | 0.78 | no change | no change |
| UBE2M | 4 | 0.88 | 0.82 | no change | no change |
| FAM177B | 1 | 0.83 | 1.14 | no change | no change |
| FAM177B | 2 | 0.99 | 1.02 | no change | no change |
| FAM177B | 3 | 1.06 | 1.14 | no change | no change |
| FAM177B | 4 | 0.12 (active) | 3.15 | reduced viability | caspase activation |
| EIF3L | 1 | 0.9 | 2.29 | no change | no change |
| EIF3L | 2 | 0.76 (active) | 2.67 | no change | caspase activation |
| EIF3L | 3 | 0.91 | 1.25 | no change | no change |
| EIF3L | 4 | 0.87 | 1.46 | no change | no change |
| CYP7A1 | 1 | 0.94 | 1.31 | no change | no change |
| CYP7A1 | 2 | 1 | 1.07 | no change | no change |
| CYP7A1 | 3 | 0.7 | 1.64 | no change | no change |
| CYP7A1 | 4 | 0.26 (active) | 3.73 | reduced viability | caspase activation |
| PTPRS | 1 | 0.62 | 2.36 | no change | no change |
| PTPRS | 2 | 0.48 (active) | 0.94 | reduced viability | no change |
| PTPRS | 3 | 0.6 | 1.04 | no change | no change |
| PTPRS | 4 | 0.94 | 1.13 | no change | no change |
| ZC3H11D | 1 | 1.03 | 1.19 | no change | no change |
| ZC3H11D | 2 | 0.95 | 1.34 | no change | no change |
| ZC3H11D | 3 | 0.96 | 1.5 | no change | no change |
| ZC3H11D | 4 | 1.02 | 0.94 | no change | no change |
| PLAAT5 | 1 | 0.94 | 1.5 | no change | no change |
| PLAAT5 | 2 | 0.76 (active) | 4.29 | no change | caspase activation |
| PLAAT5 | 3 | 0.87 | 1.26 | no change | no change |
| PLAAT5 | 4 | 0.78 | 1.17 | no change | no change |
| TRHR | 1 | 0.89 | 0.96 | no change | no change |
| TRHR | 2 | 0.44 (active) | 1.87 | reduced viability | no change |
| TRHR | 3 | 0.84 | 0.89 | no change | no change |
| TRHR | 4 | 0.98 | 1.1 | no change | no change |
| NFYA | 1 | 0.55 (active) | 2.24 | reduced viability | no change |
| NFYA | 2 | 0.92 | 0.84 | no change | no change |
| NFYA | 3 | 0.6 (active) | 4.1 | no change | caspase activation |
| NFYA | 4 | 0.5 (active) | 3.95 | reduced viability | caspase activation |
| ZNF618 | 1 | 1.09 | 1.23 | no change | no change |
| ZNF618 | 2 | 0.74 (active) | 2.94 | no change | caspase activation |
| ZNF618 | 3 | 0.86 | 1.52 | no change | no change |
| ZNF618 | 4 | 0.92 (active) | 2.91 | no change | caspase activation |
